No constants are given. Whether binding was seen depends on the method and setting. Binding seen in cells or lysates may run through a third protein. Some entries that bind do so weakly or less than the wild type.
T1: SH2 (maize endosperm AGPase large subunit, encoded by shrunken-2) (maize) (UniProt P55241)
T1 sequence (looked up): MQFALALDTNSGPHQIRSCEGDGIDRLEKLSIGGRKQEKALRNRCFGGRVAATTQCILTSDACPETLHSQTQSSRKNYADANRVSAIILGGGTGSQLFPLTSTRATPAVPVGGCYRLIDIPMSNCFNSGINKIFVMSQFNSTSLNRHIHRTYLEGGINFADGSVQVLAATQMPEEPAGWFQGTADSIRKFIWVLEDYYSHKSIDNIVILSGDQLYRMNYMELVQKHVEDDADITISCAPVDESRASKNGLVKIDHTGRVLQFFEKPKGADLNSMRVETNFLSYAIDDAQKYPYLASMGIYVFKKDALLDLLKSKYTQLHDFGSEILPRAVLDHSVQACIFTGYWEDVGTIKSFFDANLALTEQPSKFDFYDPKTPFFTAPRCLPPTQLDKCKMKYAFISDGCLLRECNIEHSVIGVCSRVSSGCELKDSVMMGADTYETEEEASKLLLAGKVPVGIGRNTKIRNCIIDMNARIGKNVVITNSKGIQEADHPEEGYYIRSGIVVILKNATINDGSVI


Target: T1, SH2 (maize endosperm AGPase large subunit, encoded by shrunken-2) (maize)
Experiment: co-purification of small and large subunit from E. coli, SDS-PAGE

Binder | binding
BT2 (wild type maize endosperm AGPase small subunit, encoded by brittle-2) (enzyme) MDMALASKASPPPWNATAAEQPIPKRDKAAANDSTYLNPQAHDSVLGIILGGGAGTRLYPLTKKRAKPAVPLGANYRLIDIPVSNCLNSNISKIYVLTQFNSASLNRHLSRAYGSNIGGYKNEGFVEVLAAQQSPDNPNWFQGTADAVRQYLWLFEEHNVMEFLILAGDHLYRMDYEKFIQAHRETNADITVAALPMDEKRATAFGLMKIDEEGRIIEFAEKPKGEQLKAMMVDTTILGLDDVRAKEMPYIASMGIYVFSKDVMLQLLREQFPEANDFGSEVIPGATSIGKRVQAYLYDGYWEDIGTIAAFYNANLGITKKPIPDFSFYDRFAPIYTQPRHLPPSKVLDADVTDSVIGEGCVIKNCKINHSVVGLRSCISEGAIIEDSLLMGADYYETEADKKLLAEKGGIPIGIGKNSCIRRAIIDKNARIGDNVKILNADNVQEAAMETDGYFIKGGIVTVIKDALLPSGTVI | binds
BT2-TI (BT2 comprising the TI mutation, threonine 462 to isoleucine) (enzyme) MDMALASKASPPPWNATAAEQPIPKRDKAAANDSTYLNPQAHDSVLGIILGGGAGTRLYPLTKKRAKPAVPLGANYRLIDIPVSNCLNSNISKIYVLTQFNSASLNRHLSRAYGSNIGGYKNEGFVEVLAAQQSPDNPNWFQGTADAVRQYLWLFEEHNVMEFLILAGDHLYRMDYEKFIQAHRETNADITVAALPMDEKRATAFGLMKIDEEGRIIEFAEKPKGEQLKAMMVDTTILGLDDVRAKEMPYIASMGIYVFSKDVMLQLLREQFPEANDFGSEVIPGATSIGKRVQAYLYDGYWEDIGTIAAFYNANLGITKKPIPDFSFYDRFAPIYTQPRHLPPSKVLDADVTDSVIGEGCVIKNCKINHSVVGLRSCISEGAIIEDSLLMGADYYETEADKKLLAEKGGIPIGIGKNSCIRRAIIDKNARIGDNVKILNADNVQEAAMETDGYFIKGGIVIVIKDALLPSGTVI | binds

Now from value to binder:

binding | Binder
binds | MP (mosaic small subunit: N-terminal part of BT2 and C-terminal part of the potato tuber AGPase small subunit) (enzyme) MDMALASKASPPPWNATAAEQPIPKRDKAAANDSTYLNPQAHDSVLGIILGGGAGTRLYPLTKKRAKPAVPLGANYRLIDIPVSNCLNSNISKIYVLTQFNSASLNRHLSRAYGSNIGGYKNEGFVEVLAAQQSPDNPNWFQGTADAVRQYLWLFEEHNVMEFLILAGDHLYRMDYEKFIQAHRETNADITVAALPMDEKRATAFGLMKIDEEGRIIEFAEKPQGEQLQAMKVDTTILGLDDKRAKEMPFIASMGIYVISKDVMLNLLRDKFPGANDFGSEVIPGATSLGMRVQAYLYDGYWEDIGTIEAFYNANLGITKKPVPDFSFYDRSAPIYTQPRYLPPSKMLDADVTDSVIGEGCVIKNCKIHHSVVGLRSCISEGAIIEDSLLMGADYYETDADRKLLAAKGSVPIGIGKNCHIKRAIIDKNARIGDNVKIINKDNVQEAARETDGYFIKSGIVTVIKDALIPSGIII
binds | MP-TI (MP having the TI mutation) (enzyme) MDMALASKASPPPWNATAAEQPIPKRDKAAANDSTYLNPQAHDSVLGIILGGGAGTRLYPLTKKRAKPAVPLGANYRLIDIPVSNCLNSNISKIYVLTQFNSASLNRHLSRAYGSNIGGYKNEGFVEVLAAQQSPDNPNWFQGTADAVRQYLWLFEEHNVMEFLILAGDHLYRMDYEKFIQAHRETNADITVAALPMDEKRATAFGLMKIDEEGRIIEFAEKPQGEQLQAMKVDTTILGLDDKRAKEMPFIASMGIYVISKDVMLNLLRDKFPGANDFGSEVIPGATSLGMRVQAYLYDGYWEDIGTIEAFYNANLGITKKPVPDFSFYDRSAPIYTQPRYLPPSKMLDADVTDSVIGEGCVIKNCKIHHSVVGLRSCISEGAIIEDSLLMGADYYETDADRKLLAAKGSVPIGIGKNCHIKRAIIDKNARIGDNVKIINKDNVQEAARETDGYFIKSGIVIVIKDALIPSGIII
